Test results from publication PMC11994786.

Amino acid sequences for entries named in this document (tags omitted). A change or cut given only in a name is not applied to a line headed by its entry.
UniProt P69566: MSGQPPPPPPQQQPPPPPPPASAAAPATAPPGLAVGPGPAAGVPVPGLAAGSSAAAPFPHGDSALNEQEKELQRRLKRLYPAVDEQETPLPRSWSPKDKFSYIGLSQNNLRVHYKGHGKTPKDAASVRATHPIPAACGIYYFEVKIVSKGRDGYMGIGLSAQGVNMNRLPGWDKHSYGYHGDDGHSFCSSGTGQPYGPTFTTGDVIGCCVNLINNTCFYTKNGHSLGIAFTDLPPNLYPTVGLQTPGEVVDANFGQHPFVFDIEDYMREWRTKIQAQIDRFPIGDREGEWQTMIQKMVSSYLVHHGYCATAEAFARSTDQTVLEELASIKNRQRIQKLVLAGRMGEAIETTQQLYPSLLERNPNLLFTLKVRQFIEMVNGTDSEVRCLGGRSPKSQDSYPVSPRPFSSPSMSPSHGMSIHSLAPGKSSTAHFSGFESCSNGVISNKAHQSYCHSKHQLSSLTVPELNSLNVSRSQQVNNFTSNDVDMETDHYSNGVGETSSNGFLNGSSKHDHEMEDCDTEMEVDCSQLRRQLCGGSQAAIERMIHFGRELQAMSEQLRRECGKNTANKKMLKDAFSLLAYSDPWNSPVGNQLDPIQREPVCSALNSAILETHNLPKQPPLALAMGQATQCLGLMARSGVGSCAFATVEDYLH
UniProt Q9JIY5: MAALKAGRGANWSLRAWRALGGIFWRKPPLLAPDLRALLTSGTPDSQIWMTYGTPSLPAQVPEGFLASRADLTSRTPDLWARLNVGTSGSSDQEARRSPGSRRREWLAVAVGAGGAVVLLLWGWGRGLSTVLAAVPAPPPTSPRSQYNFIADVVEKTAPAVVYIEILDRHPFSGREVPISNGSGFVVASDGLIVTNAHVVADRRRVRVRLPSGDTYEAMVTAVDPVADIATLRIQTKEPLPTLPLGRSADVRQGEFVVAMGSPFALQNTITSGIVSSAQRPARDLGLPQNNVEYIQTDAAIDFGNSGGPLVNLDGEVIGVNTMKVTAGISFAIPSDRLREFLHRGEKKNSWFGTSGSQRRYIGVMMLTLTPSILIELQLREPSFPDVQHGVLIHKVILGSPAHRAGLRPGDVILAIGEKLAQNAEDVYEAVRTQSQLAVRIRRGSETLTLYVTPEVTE

Target: RanBP9-TT (endogenous RanBP9 with a double tag made of HA and V5) (mouse) (UniProt P69566)
Assay: co-IP; anti-V5 magnetic beads on lysates of RanBP9-TT MEFs grown with 10% serum or deprived of serum for 4 h; IgG beads as control; Western blot

binding: binds
Substance: High temperature requirement protein 2 (HtrA2) (from UniProt Q9JIY5)

These are yes or no findings as the source states them, for the method shown. In cells and extracts the contact can be indirect. A result given as binding can be weak or reduced; the word gives no strength.
